This is an account of results in publication PMC3541234, “Functional Characterization of a Chimeric Soluble Fas Ligand Polymer with In Vivo Anti-Tumor Activity” (PLoS ONE, 2013).

Holding throughout (assay): native gel or EMSA; BN-PAGE, 4-18% acrylamide gradient, non-reducing, 4 C overnight; COS supernatants; FasL detected with mAb G247; compared with SDS-PAGE under reducing conditions
(In general: A gel shift assay detects complexes by their altered migration in electrophoresis.)

Assay [1] has as its target D1IgD2FasL (D1IgD2 modules of gp190 fused to the extracellular domain of hFasL) (UniProt P42702).
The target of assay [2] is pFasL (polymeric soluble FasL; IgFasL chimera: Ig module of gp190 fused to the extracellular domain of hFasL) (UniProt P42702).
Assay [3] has as its target D2FasL (D2 module of gp190 fused to the extracellular domain of hFasL) (UniProt P42702).

Results are given in words; binding and its absence hold for the method and conditions named. Some entries that bind do so weakly or less than the wild type.

B1: D1IgD2FasL (D1IgD2 modules of gp190 fused to the extracellular domain of hFasL) (ligand, UniProt P42702 49-542, looked up)
chain: APHDLKCVTNNLQVWNCSWKAPSGTGRGTDYEVCIENRSRSCYQLEKTSIKIPALSHGDYEITINSLHDFGSSTSKFTLNEQNVSLIPDTPEILNLSADFSTSTLYLKWNDRGSVFPHRSNVIWEIKVLRKESMELVKLVTHNTTLNGKDTLHHWSWASDMPLECAIHFVEIRCYIDNLHFSGLEEWSDWSPVKNISWIPDSQTKVFPQDKVILVGSDITFCCVSQEKVLSALIGHTNCPLIHLDGENVAIKIRNISVSASSGTNVVFTTEDNIFGTVIFAGYPPDTPQQLNCETHDLKEIICSWNPGRVTALVGPRATSYTLVESFSGKYVRLKRAEAPTNESYQLLFQMLPNQEIYNFTLNAHNPLGRSQSTILVNITEKVYPHTPTSFKVKDINSTAVKLSWHLPGNFAKINFLCEIEIKKSNSVQEQRNVTIKGVENSSYLVALDKLNPYTLYTFRIRCSTETFWKWSKWSNKKQHLTTEASPSKGPDTWQKELAELRESTSQMHTASSLEKQIGHPSPPPEKKELRKVAHLTGKSNSRSMPLEWEDTYGIVLLSGVKYKKGGLVINETGLYFVYSKVYFRGQSCNNLPLSHKVYMRNSKYPQDLVMMEGKMMSYCTTGQMWARSSYLGAVFNLTSADHLYVNVSELSLVNFEESQTFFGLYKL
notes: extracellular domain of human FasL (hFasL), amino acids 108 to 281; source: COS cells, transiently transfected (pED4 vector), supernatant; for SPR in Opti-MEM, concentrated 100 times, dialysed against PBS
Regarding B1, in assay [1], the binding entry is “binds”.

B2: pFasL (polymeric soluble FasL; IgFasL chimera: Ig module of gp190 fused to the extracellular domain of hFasL) (ligand, UniProt P42702 246-328, looked up)
chain: WIPDSQTKVFPQDKVILVGSDITFCCVSQEKVLSALIGHTNCPLIHLDGENVAIKIRNISVSASSGTNVVFTTEDNIFGTVIFQKELAELRESTSQMHTASSLEKQIGHPSPPPEKKELRKVAHLTGKSNSRSMPLEWEDTYGIVLLSGVKYKKGGLVINETGLYFVYSKVYFRGQSCNNLPLSHKVYMRNSKYPQDLVMMEGKMMSYCTTGQMWARSSYLGAVFNLTSADHLYVNVSELSLVNFEESQTFFGLYKL
notes: Ig-like (Ig) module of the LIF receptor gp190, amino acids 246 to 328; extracellular domain of human FasL (hFasL), amino acids 108 to 281; source: COS cells, transiently transfected (pED4 vector), supernatant; for SPR in Opti-MEM, concentrated 100 times, dialysed against PBS; copies: 12
For the molecule B2, the binding result in assay [2] is given as “binds”.

B3: D2FasL (D2 module of gp190 fused to the extracellular domain of hFasL) (ligand, UniProt P42702 329-542, looked up)
chain: AGYPPDTPQQLNCETHDLKEIICSWNPGRVTALVGPRATSYTLVESFSGKYVRLKRAEAPTNESYQLLFQMLPNQEIYNFTLNAHNPLGRSQSTILVNITEKVYPHTPTSFKVKDINSTAVKLSWHLPGNFAKINFLCEIEIKKSNSVQEQRNVTIKGVENSSYLVALDKLNPYTLYTFRIRCSTETFWKWSKWSNKKQHLTTEASPSKGPDTWQKELAELRESTSQMHTASSLEKQIGHPSPPPEKKELRKVAHLTGKSNSRSMPLEWEDTYGIVLLSGVKYKKGGLVINETGLYFVYSKVYFRGQSCNNLPLSHKVYMRNSKYPQDLVMMEGKMMSYCTTGQMWARSSYLGAVFNLTSADHLYVNVSELSLVNFEESQTFFGLYKL
notes: as for B1
For B3, in assay [3], the binding entry is “binds”.
